Measurements taken from US20110305673A1, “COMPOSITIONS AND METHODS FOR TISSUE REPAIR” (The University of Vermont and State Agriculture College, priority 2008, published 2011).
At least one structure is not confirmed: it was looked up by name or label, or the drawing left a doubt.

Tested on: cardiac progenitor cells
Assay: Signal transduction inhibitor study on CPC number (48 hrs)
Type: cell-based, rat
Method: Serum-free conditioned media was prepared as described previously (Kiel et al., Cell 2005; 121:1109-1121). cardiac progenitor cells and cardiac fibroblasts were plated at 500 cells/cm^2 and cultured in their growth medium. Three days after plating the medium was removed, the wells were washed twice with PBS, and the cells were then exposed to conditioned media or to fresh serum-free medium (α-MEM). For time course proliferation studies, the conditioned media and serum-free medium were changed every 2 days. […] All inhibitors were from Calbiochem (EMD Chemicals, San Diego, Calif.) and were dissolved in dimethyl sulfoxide (DMSO). Cardiac progenitor cells were cultured in conditioned media with the inhibitors or with the equivalent volume of DMSO as a control for 48 hrs. […] The hypoxia incubator was a model that measured both CO2 and O2 (Thermo Electron, Form a Series II, model 3130). Oxygen was maintained at 1% by the injection of nitrogen gas and was monitored continuously. Cell numbers were quantified by the fluorescent labeling of nucleic acids (CyQuant dye; Molecular Probes, Carlsbad, Calif.) and with a microplate fluorescence reader (FLX800; Bio-Tek Instruments Inc., Winooski, Vt.) set to 480 nm excitation and 520 nm emission. […]

## O=c1cc(N2CCOCC2)oc2c(-c3ccccc3)cccc12 [LY294002]
10 μM, 48 hours
  effect on CPC numbers in growth medium: significantly diminished
Inhibitor 10 μM, 48 hrs
  effect on number/growth of CPCs in MSC conditioned media: decreased
